Among all 140,000 compounds or so, about 4,300 (3.1%) were called active. This list was built around the results that the source calls inconclusive (neither active nor inactive); the mix of calls is not that of the screen.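 The calls were made as follows: active = readout at or below -70, meaning at least 70% loss of cells showing the perinucleolar compartment, a nuclear body marking cancer cells; inconclusive = readout between -30 and a set limit; inactive = the rest.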
Experiment: High Content Assay for Compounds that inhibit the Assembly of the Perinucleolar Compartment;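 also: plate controls were DMSO wells for no effect and camptothecin positive control wells for full effect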
Settings: PC3M PTB-GFP, PNC prevalence imaging, 16 h; at 10 µM; active compounds read low
Summary of the method: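 Compounds are pinned in duplicate onto adhered PC3M cells stably expressing GFP-tagged PTB and incubated 16 h at 37 C. Cells are then fixed, nuclei stained with Hoechst, and PNC-positive cells counted.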

Structure (SMILES) | activity change (PNC), negative = inhibition
Cc1ccc2c(c1)N(CC(=O)N1CCCCCC1)C(=O)CO2 | inconclusive: -37.6%
CC(C)Cc1nc2oc3c(NCc4cccnc4)ncnc3c2c2c1CCC2 | inconclusive: -47.6%
CCOc1cc(S(=O)(=O)Nc2ccc(Cl)cn2)ccc1F | inactive: -26.6%
COc1ccc(CN2CC(C(=O)NCCCN3CCCCCC3)CC2=O)cc1 (stereo unspecified) | inconclusive: -31.2%
COc1ccc(C(C2C(=O)CC(C)(C)CC2=O)C2C(=O)CC(C)(C)CC2=O)cc1COCC(F)(F)F | inconclusive: -48.8%
O=C(O)CC1(c2ccccc2)C(=O)c2ccccc2C1=O | inconclusive: -46%
N#CCC(=N)N1CCN(c2cccc(Cl)c2)CC1 | inconclusive: -50.4%
Cc1cc(NC(=O)c2cncc(Br)c2)no1 | inconclusive: -30.2%
CCCCn1c(NC(=O)c2ccccc2Cl)c(C#N)c2nc3ccccc3nc21 | inactive: 16.8%
O=C1NCCN1C(=O)C12CC3CC(CC(C3)C1)C2 | inconclusive: -47.3%
OCCN1CCN(c2nc(NCc3ccco3)c3ccccc3n2)CC1 | active: -88%
Cc1cccc(Nc2nc3ccccc3s2)c1C | inconclusive: -47.9%
Cc1cc(C)n(CC(=O)N2c3ccccc3Sc3ccc(C(F)(F)F)cc32)n1 | active: -113%
CN(CCNC(=O)CN1CCN(Cc2ccccc2Cl)C1=O)Cc1ccccc1 | inconclusive: -33.6%
CCn1c(SCC(=O)c2cccs2)nnc1-c1ccco1 | inconclusive: -33.8%
Cc1ccnc(NS(=O)(=O)c2ccc(N3C(=O)c4c(Cl)c(Cl)c(Cl)c(Cl)c4C3=O)cc2)n1 | inconclusive: -47%
CC(=O)c1sc(NC(=O)C(C)(C)C)nc1C | inactive: 24.8%
CCOc1cc(C(=O)NCCN2CCOCC2)cc(OCC)c1OCC | active: -100%
Cc1csc(NC(=O)CSc2nnc(Cc3cccn3C)n2-c2ccc(F)cc2)n1 | inconclusive: -44.4%
CCN(CC)S(=O)(=O)c1ccc(NC(=O)c2cc(C(=O)OC)cc([N+](=O)[O-])c2)cc1 | inactive: 54.9%
O=C(Nc1ccc2c(c1)OCCO2)C1CCCN(S(=O)(=O)c2cccnc2)C1 (stereo unspecified) | inconclusive: -34.8%
O=C(CN1C(=O)CCC1=O)Nc1nc(-c2nc3ccccc3s2)cs1 | inconclusive: -45.7%
COc1cc(OC)cc(C(=O)Nn2cc(C(=O)Nc3c(F)cccc3F)c3ccccc3c2=O)c1 | active: -113%

Compounds above that contain a furan ring, fused or not:
Structure (SMILES) | activity change (PNC), negative = inhibition
CC(C)Cc1nc2oc3c(NCc4cccnc4)ncnc3c2c2c1CCC2 | inconclusive: -47.6%
OCCN1CCN(c2nc(NCc3ccco3)c3ccccc3n2)CC1 | active: -88%
CCn1c(SCC(=O)c2cccs2)nnc1-c1ccco1 | inconclusive: -33.8%

(continued)

Structure (SMILES) | activity change (PNC), negative = inhibition
CNc1cc(-n2nc(C)cc2-c2ccccc2)ncn1 | inactive: -8.45%
CC(=C1C(=O)c2ccccc2C1=O)N1CCc2ccccc2C1 | inconclusive: -41.2%
CNC(=S)N/N=C/c1ccc2c(c1)OCCO2 | inconclusive: -54.7%
NS(=O)(=O)c1ccc(CCNC(=O)Nc2ccc(Cl)c(Cl)c2)cc1 | inactive: -23.7%
O=C1C2C3C=CC(C4CC34)C2C(=O)N1/N=C/c1ccc(-c2ccc(Cl)cc2[N+](=O)[O-])o1 (stereo unspecified) | inconclusive: -30.5%
COc1ccc(-c2csc(NC(=S)NC(=O)/C=C/c3ccco3)n2)cc1OC | active: -106%
CCCCN(CCCC)CCNC(=O)CNC(=O)c1cccs1 | inconclusive: -36.4%
COc1ccc(N2C(=O)C3CCCN3C2c2cccc(C)c2)cc1Cl (stereo unspecified) | inconclusive: -58.4%
Cc1ccc(OCCSCc2nnc(NC(=O)Nc3cccc(Cl)c3)s2)cc1 | inconclusive: -31.7%
CCCCOC(=O)/C(=C/c1cn(C)c2ccccc12)NC(=O)c1ccc(OC)cc1 | active: -93.3%
COc1ccc(NC(C#N)c2ccccc2OCc2ccccc2)cc1 (stereo unspecified) | inactive: 25.7%
O=C(/C=C/c1cnc2ccccc2n1)NC12CC3CC(CC(C3)C1)C2 | inactive: -17.3%
CSc1nc(C)c2cc(C)oc2n1 | inactive: 24.1%
COc1ccc(S(=O)(=O)NC2CC3CCC2C3)cc1Cl (stereo unspecified) | inconclusive: -71.4%
O=C(CSc1nnc(Cc2ccccc2)o1)Nc1ccc(Br)cn1 | inactive: -17.3%
O=[N+]([O-])c1cc(S(=O)(=O)NCCN2CCOCC2)ccc1Sc1nnnn1-c1ccccc1 | inactive: -15.2%
CCN(CC)S(=O)(=O)c1cc([N+](=O)[O-])ccc1NNC(=O)Nc1ccc(Cl)c(Cl)c1 | inactive: -16.5%
CCOC(=O)c1c(-c2ccccc2)csc1NC(=O)c1cccc(N2C(=O)CCC2=O)c1 | inconclusive: -40%
CC1CCCC(C)N1C(=O)COC(=O)c1ccc(O)cc1 (stereo unspecified) | inconclusive: -37.2%
CCCCOC(=O)Nc1nnc(/C=C/c2ccc(OC)cc2)s1 | inconclusive: -42.3%
Cc1ccc(C(=O)Nn2c(O)c(C=C3N=c4ccccc4=N3)sc2=S)cc1 | inconclusive: -63.7%
CCN(CC)C(=O)C(=O)N/N=C/c1ccc(Br)cc1 | inconclusive: -71.9%
O=C(C1CC1)N1CCN(C(c2ccccc2)c2ccccc2)CC1 | inactive: 10.5%

4 entries from above in a different format:
CC(C)Cc1nc2oc3c(NCc4cccnc4)ncnc3c2c2c1CCC2
  activity change (PNC), negative = inhibition: inconclusive: -47.6%
CCOc1cc(S(=O)(=O)Nc2ccc(Cl)cn2)ccc1F
  activity change (PNC), negative = inhibition: inactive: -26.6%
COc1ccc(CN2CC(C(=O)NCCCN3CCCCCC3)CC2=O)cc1 (stereo unspecified)
  activity change (PNC), negative = inhibition: inconclusive: -31.2%
COc1ccc(C(C2C(=O)CC(C)(C)CC2=O)C2C(=O)CC(C)(C)CC2=O)cc1COCC(F)(F)F
  activity change (PNC), negative = inhibition: inconclusive: -48.8%

(listing goes on)

Structure (SMILES) | activity change (PNC), negative = inhibition
Cc1ccc(NC(=O)COc2cccnc2[N+](=O)[O-])cc1S(=O)(=O)N1CCCCC1 | inactive: 39.5%
C/C(=N\NC(=O)c1ccco1)c1ccc(NC(=O)c2cccs2)cc1 | inconclusive: -31.5%
CCOC(=O)Cc1nc2ccccc2[nH]1 | inconclusive: -31.8%
CC1CCCC(C(=O)O)N1C(=O)CCSSCCC(=O)N1C(C)CCCC1C(=O)O (stereo unspecified) | inconclusive: -54.9%
Cc1cc(=O)oc(C)c1C(=O)NCCN1CCOCC1 | inconclusive: -32%
C=CCn1c(SCC(=O)N2CCOCC2)nc(O)c(Cc2ccccc2)c1=O | inactive: -20%
Cc1ccc(CNC(=O)c2cn(C3CCCC3)c(=O)c3c2c2ccccc2n3C)o1 | inconclusive: -70.6%
CCn1nc(CC(=O)Nc2nnc(CC(=O)N3CCCCC3)s2)c2ccccc2c1=O | inactive: -27.7%
CCN(CC)c1ccc(-c2nn3c(-c4cccnc4)nnc3s2)cc1 | inconclusive: -39.7%
COc1ccc(N2C(=O)/C(=C\c3ccco3)N=C2SCC(=O)NC(C)C)cc1Cl | inconclusive: -57.5%
CC(C)NC(=O)CCCc1cn(C)c2ccccc12 | inconclusive: -30.1%
CCCc1cc(=O)[nH]c(SCC(=O)NC2CCCCC2)n1 | inconclusive: -43.7%
Cc1cccc(C)c1Nc1ncnc(N)c1[N+](=O)[O-] | inconclusive: -42%
Cc1ccc(Cn2nnc3c(=O)n(Cc4ccccc4C)cnc32)cc1 | inactive: -16.5%
Cc1cccc(-n2nc3c(c2NC(=O)c2ccco2)CSC3)c1C | inconclusive: -58.7%
COC(=O)c1sccc1NC(=O)COc1ccc(Cl)cc1Cl | inactive: 53.4%
Cc1ccc2cc(CCNC(=O)CC(C)C)c(=O)[nH]c2c1 | inactive: 28.2%
Cc1ccc(S(=O)(=O)N2C(=S)SCC2(C)C)cc1 | inconclusive: -66.7%
CCOC(=O)C1=C(C)Nc2nnnn2C1c1ccc(OC)c(Br)c1 (stereo unspecified) | inactive: -18.9%
COc1ccc(CNC(=O)C2CC(=O)N(c3ccc(OCC(=O)N4CCCCC4)cc3)C2)cc1 (stereo unspecified) | inactive: -1.6%
COC(=O)C1=C(C(=O)OC)C2C(C)=CC(C)=CN2C(C(=O)OC)=C1C(=O)OC (stereo unspecified) | inconclusive: -57.7%
Clc1ccccc1-c1nnc2sc(CCc3ccccc3)nn12 | inactive: -9.43%
Cc1cc2c(n1-c1ccc(Br)cc1)CC(C)(C)CC2=O | inconclusive: -51.8%

Structure (SMILES) | activity change (PNC), negative = inhibition
CCOc1ncccc1C(=O)OCC(=O)Nc1c(C)cccc1C | inconclusive: -55.1%
CCOC(=O)CNC(=O)C(NC(=O)C1CCC(C)CC1)C(C)CC (stereo unspecified) | inconclusive: -31.5%
O=C(C1CSC2(c3ccc(F)cc3)CCC(=O)N12)N1CCCCCC1 (stereo unspecified) | inconclusive: -48.9%
CCOc1cccc(OCCOCCN2CCCC2)c1 | inconclusive: -50.8%
O=C(O)c1cccc(OCc2ccccc2Cl)c1 | inconclusive: -47.7%
CC(=O)c1ccc(S(=O)(=O)N2CCCC2)cc1 | inactive: 1.87%
COc1cc2c(cc1OC)C(c1ccccc1)N(C(=O)c1ccco1)CC2 (stereo unspecified) | inactive: 37.8%
CCOC(=O)c1c(C)c(C(=O)Nc2ccc3c(c2)OCCO3)c(C)n1CC | inactive: -21.8%
Cc1cc2ccccc2c(=O)n1CC(=O)NC1CCCCCC1 | inconclusive: -37.8%
CC(C)(C)c1ccc(NC(=O)NCc2ccco2)cc1 | inconclusive: -60.6%
CCOCCCNC(=O)C(NC(=O)C1CCC(=O)N1)c1ccc(C)cc1 (stereo unspecified) | inconclusive: -45.4%
O=C(CSc1ccccc1)Nc1nnc(/C=C/c2ccccc2)s1 | inconclusive: -63.1%
O=C(COC(=O)c1cccc(C(F)(F)F)c1)NCc1ccc(Cl)cc1 | inactive: -11.1%
COc1ccc(-c2onc(C)c2-c2ccc(C(=O)OC(C)C)o2)c(O)c1 | inconclusive: -54.3%
COc1ccccc1N1CCN(CC(=O)NC(=O)NCc2ccco2)CC1 | inactive: -19.8%
CCC(C)NCCCCOc1ccc(Cl)cc1C (stereo unspecified) | inactive: -25.4%
CCOc1cc(C(=O)N/N=C/c2ccsc2)cc(OCC)c1OCC | inconclusive: -37%
COCCN(CC(=O)Nc1ccc(F)cc1)S(=O)(=O)c1ccc(S(=O)(=O)N2CCCC2)cc1 | inconclusive: -31.1%
FC(F)(F)c1nc(N2CCN(c3ccccc3)CC2)nc2c1CCCCC2 | inconclusive: -42.3%
CC1N(O)C(C)(C)C(c2ccccc2)=[N+]1[O-] (stereo unspecified) | inactive: 39.5%
Cc1nn(-c2ccccc2)c2sc(C(=O)c3c(N)n(C)c(=O)n(C)c3=O)cc12 | inconclusive: -42.9%
COc1ccc(C(=O)N2c3ccccc3C=CC2C#N)cc1 (stereo unspecified) | inactive: -19.2%
